No constants are given. Whether binding was seen depends on the method and setting. Some binding calls cover weakened binding; strength is not graded here. Sequences can lack the tags named with a protein.
B1: His6-tagged human DISC1 C-region (residues 691-836), Q9NRI5 691-836 (domain or fragment)
chain: WEADLEACRLLIQSLQLQEARGSLSVEDERQMDDLEGAAPPIPPRLHSEDKRKTPLKVLEEWKTHLIPSLHCAGGEQKEESYILSAELGEKCEDIGKKLLYLEDQLHTAIHSHDEDLIQSLRRELQMVKETLQAMILQLQPAKEAG
B2: MBP-His6-fused human DISC1 C-region (residues 691-836), Q9NRI5 691-836 (domain or fragment)
chain: B1 chain

Columns and labels:
[1] = molecular target: T1, His6-tagged human DISC1 C-region (residues 691-836) (human), Q9NRI5; experiment: dynamic light scattering; freshly prepared (off-column) His6-C-region followed over hours at 20 °C; TBS; Fig. S1; both purified; settings: remark: other sources report otherwise
T1 chain: B1 chain

[2] = molecular target: T2, MBP-His6-fused human DISC1 C-region (residues 691-836) (human), Q9NRI5; experiment: ITC; no titration: heat flow of the spontaneous association of the protein solution monitored in the cell (iTC-200, 300 rpm); 10-50 µM at 37 °C, 10 µM at 20-60 °C; dH from the peak area normalised to the protein amount; both purified; settings: remark: other sources report otherwise
T2 chain: B1 chain

Binder	binding [1]	binding [2]
B1	binds	
B2		binds

— article PMC8683410 (Translational Psychiatry, 2021)
